Reference: patent US9206128B2 (Constellation Pharmaceuticals, Inc., priority 2011, dated 2015)
pIC50: −log10 of the molar value. Structures were worked out from names or drawings and are uncertain.

By UniProt entry, the sequences of proteins in these tests, tags left out. Where a name states a change or a piece, a line headed by the entry shows the natural chain unless it says otherwise.
UniProt Q15910, whole entry: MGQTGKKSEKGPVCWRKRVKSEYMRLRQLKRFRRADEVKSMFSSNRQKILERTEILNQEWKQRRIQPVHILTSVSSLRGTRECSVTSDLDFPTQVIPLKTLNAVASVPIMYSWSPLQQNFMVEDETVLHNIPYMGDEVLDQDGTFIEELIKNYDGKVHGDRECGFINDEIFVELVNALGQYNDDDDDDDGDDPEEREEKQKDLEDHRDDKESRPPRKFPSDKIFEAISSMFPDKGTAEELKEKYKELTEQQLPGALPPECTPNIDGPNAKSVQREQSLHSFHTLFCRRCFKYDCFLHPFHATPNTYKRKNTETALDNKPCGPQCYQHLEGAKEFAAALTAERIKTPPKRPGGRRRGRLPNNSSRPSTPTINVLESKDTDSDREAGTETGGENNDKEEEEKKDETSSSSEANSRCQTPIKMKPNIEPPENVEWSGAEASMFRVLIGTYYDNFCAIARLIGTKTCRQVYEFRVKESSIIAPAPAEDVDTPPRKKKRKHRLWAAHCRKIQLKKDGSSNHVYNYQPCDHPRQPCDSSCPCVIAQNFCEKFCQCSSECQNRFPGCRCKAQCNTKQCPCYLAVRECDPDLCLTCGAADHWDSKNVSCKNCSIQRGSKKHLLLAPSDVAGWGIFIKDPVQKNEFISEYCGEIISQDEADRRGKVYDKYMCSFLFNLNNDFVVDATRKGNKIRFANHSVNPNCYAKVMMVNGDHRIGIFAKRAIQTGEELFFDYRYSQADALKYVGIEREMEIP
UniProt Q15910, whole entry Y641N: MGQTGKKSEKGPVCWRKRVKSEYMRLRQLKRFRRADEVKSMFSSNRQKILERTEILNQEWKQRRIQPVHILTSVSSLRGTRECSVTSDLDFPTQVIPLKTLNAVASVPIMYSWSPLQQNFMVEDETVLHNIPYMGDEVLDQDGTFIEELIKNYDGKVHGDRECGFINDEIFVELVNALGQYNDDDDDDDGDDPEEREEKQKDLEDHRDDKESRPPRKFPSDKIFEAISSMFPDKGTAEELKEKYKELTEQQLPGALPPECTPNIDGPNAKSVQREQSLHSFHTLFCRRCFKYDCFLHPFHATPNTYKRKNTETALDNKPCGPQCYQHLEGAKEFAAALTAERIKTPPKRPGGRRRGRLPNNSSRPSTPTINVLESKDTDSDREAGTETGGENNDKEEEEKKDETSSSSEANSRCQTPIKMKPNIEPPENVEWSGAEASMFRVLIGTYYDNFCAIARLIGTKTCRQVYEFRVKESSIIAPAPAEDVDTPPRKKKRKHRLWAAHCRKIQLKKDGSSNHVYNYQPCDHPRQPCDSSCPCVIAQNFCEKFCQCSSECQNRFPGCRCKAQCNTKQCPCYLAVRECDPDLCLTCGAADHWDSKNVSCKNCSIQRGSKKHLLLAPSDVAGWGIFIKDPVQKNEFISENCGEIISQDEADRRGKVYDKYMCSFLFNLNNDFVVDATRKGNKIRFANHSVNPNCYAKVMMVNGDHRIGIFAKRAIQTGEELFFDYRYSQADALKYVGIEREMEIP
UniProt O75530, whole entry partner: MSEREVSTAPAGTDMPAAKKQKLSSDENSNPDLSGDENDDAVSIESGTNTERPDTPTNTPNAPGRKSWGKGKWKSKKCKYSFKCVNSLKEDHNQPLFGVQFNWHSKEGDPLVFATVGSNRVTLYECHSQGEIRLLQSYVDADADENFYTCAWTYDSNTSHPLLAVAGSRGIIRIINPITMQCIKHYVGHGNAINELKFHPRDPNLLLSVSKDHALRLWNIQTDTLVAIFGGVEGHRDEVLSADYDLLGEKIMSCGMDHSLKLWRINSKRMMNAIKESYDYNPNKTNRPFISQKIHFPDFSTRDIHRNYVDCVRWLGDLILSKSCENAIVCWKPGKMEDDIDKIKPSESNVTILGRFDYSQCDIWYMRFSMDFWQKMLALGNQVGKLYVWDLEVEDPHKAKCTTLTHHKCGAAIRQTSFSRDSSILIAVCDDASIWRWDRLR
UniProt Q15022, whole entry partner: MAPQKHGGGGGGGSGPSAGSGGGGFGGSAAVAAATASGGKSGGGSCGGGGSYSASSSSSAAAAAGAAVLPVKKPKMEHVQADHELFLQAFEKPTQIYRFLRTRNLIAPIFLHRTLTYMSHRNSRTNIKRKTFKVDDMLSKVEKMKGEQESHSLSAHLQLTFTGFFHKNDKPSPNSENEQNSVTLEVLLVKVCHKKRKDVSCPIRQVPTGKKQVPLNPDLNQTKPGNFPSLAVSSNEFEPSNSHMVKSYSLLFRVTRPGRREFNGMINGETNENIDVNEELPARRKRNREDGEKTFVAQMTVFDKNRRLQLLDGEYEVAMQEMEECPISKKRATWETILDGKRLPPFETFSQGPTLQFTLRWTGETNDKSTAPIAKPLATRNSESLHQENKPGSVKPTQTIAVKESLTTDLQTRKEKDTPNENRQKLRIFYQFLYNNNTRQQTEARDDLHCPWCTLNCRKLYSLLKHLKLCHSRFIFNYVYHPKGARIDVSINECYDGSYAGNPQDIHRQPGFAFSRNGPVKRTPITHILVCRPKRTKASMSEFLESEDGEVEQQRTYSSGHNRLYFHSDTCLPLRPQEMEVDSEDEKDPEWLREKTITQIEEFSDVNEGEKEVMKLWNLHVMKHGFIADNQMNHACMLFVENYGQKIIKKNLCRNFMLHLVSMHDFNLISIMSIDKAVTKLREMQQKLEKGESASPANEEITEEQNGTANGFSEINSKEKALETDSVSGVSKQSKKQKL

Legend:
Y641N EZH2 = Y641N EZH2 (Homo sapiens, UniProt Q15910, Y641N); experiment: Y641N EZH2 activity inhibition assay (as EZH2 assay, reconstituted H3K27Me2 oligonucleosomes as substrate); assay type: biochemical; details: read-out: Y641N EZH2 IC50, Y641N EZH2 mutant enzyme
EZH2 = EZH2 (Homo sapiens, UniProt Q15910); experiment: EZH2 activity inhibition assay (rPRC2, 3H SAM, biotinylated oligonucleosomes, FlashPlate); assay type: biochemical; details: read-out: EZH2 IC50; rPRC2, 2 nM EZH2, 0.2 μM 3H SAM, top concentration 80 μM

`Cc1cc(C)c(CNC(=O)c2ccc(C(C)OC3CCOC3)cc2)c(=O)[nH]1` (single isomer, unassigned) [I-82] showed a pIC50 (Y641N EZH2) of 4.30 to 5.00 and a pIC50 (EZH2) of 5.00 to 6.00.
